The target in assay [1] is connexin 32 L81H, FLAG-tagged (human) (UniProt P08034). As to the kind of experiment: co-IP; FLAG-tagged Cx32 constructs co-transfected with hamster BiP in HEK293T; anti-FLAG precipitation; lysis in NP40 buffer supplemented with apyrase; washes in NP40 buffer with 400 mM NaCl; immunoblot.
The target in assay [2] is connexin 32 L90H, FLAG-tagged (human) (UniProt P08034). Described as above.
Assay [3] shares this target. As to the kind of experiment: co-IP; FLAG-tagged Cx32 constructs precipitated from transfected HEK293T cells with anti-FLAG (M2) affinity gel; lysis in 50 mM Tris-HCl pH 7.5, 150 mM NaCl, 1% digitonin; washes with 0.5% digitonin; 4 °C; endogenous partners detected by immunoblot.
For assay [4], the target named is connexin 32 wild type, FLAG-tagged (human) (UniProt P08034). The description is as above.
The target is the same in assay [5]. Kind of assay: SDS-PAGE and immunoblot (SDS-resistant dimers); Cx32 constructs from transfected HEK293T cells on reducing SDS-PAGE gels; monomer and dimer bands seen by immunoblot.
The target in assay [6] is connexin 32 L90H, FLAG-tagged (human) (UniProt P08034). The assay is described as above.
For assay [7] the target is unchanged. Kind of assay: co-IP; FLAG-tagged Cx32 constructs precipitated from transfected HEK293T cells with anti-FLAG (M2) affinity gel; lysis in 50 mM Tris-HCl pH 7.5, 150 mM NaCl, 1% digitonin; washes with 0.5% digitonin; 4 °C; endogenous partners detected by immunoblot. This is another data set of the same source.
Assay [8] has as its target connexin 32 wild type, FLAG-tagged (human) (UniProt P08034). The assay is described as above. The source holds these as a separate data set.

The chains behind the UniProt entries cited, without tags or fusion partners. Where a name states a change or a piece, a line headed by the entry shows the natural chain unless it says otherwise. Residues count along the entry.
UniProt P08034: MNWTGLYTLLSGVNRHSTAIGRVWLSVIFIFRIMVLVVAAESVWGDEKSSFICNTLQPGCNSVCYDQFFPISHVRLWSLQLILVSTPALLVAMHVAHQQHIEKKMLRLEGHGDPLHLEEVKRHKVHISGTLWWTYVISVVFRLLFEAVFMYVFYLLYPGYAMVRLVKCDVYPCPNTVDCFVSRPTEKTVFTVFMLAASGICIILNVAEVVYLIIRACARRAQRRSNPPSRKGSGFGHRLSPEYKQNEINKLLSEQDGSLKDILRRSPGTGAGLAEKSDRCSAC
UniProt G3I8R9, residues 19-654: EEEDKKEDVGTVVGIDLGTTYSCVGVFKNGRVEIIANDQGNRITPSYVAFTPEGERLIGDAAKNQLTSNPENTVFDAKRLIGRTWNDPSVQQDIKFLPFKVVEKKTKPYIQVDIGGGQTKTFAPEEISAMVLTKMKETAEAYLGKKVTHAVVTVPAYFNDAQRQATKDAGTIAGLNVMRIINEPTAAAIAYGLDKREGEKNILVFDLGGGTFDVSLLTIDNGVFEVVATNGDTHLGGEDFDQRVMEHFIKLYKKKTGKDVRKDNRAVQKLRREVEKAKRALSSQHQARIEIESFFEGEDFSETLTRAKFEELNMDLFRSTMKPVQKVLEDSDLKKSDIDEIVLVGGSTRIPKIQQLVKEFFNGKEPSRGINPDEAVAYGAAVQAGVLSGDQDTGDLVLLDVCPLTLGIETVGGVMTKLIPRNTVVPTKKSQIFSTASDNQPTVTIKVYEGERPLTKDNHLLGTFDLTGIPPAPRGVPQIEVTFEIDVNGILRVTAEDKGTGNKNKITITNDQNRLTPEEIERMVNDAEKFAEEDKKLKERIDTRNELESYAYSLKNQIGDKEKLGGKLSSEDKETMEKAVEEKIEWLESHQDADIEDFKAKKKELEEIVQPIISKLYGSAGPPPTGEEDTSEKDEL
UniProt Q5UCC4, residues 26-262: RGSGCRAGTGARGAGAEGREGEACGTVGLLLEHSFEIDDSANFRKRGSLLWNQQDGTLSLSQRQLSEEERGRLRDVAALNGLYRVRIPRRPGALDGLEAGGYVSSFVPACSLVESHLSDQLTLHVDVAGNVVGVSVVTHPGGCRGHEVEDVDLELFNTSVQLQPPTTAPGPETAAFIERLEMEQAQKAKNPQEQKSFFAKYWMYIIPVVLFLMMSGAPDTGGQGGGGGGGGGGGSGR

No constants are given. Whether binding was seen depends on the method and setting. For some assays here: In cells and extracts the contact can be indirect. Some entries that bind do so weakly or less than the wild type.

Regarding “hamster BiP (from UniProt G3I8R9 19-654)”, the binding entry in assay [1] and in assay [2] was “binds” each time.
“ER-membrane protein complex (EMC) subunit 10 (from UniProt Q5UCC4 26-262)”: the binding result in assay [3] and in assay [4] was “binds” throughout.
In the case of “connexin 32 wild type, FLAG-tagged (from UniProt P08034 1-283)”, the binding entry in assay [5] is given as “binds”.
Consider “connexin 32 L90H, FLAG-tagged (from UniProt P08034 1-283)”, for which, in assay [6], the binding entry is “binds”.

B1: Calnexin (protein, UniProt P27824 21-592)
chain: HDGHDDDVIDIEDDLDDVIEEVEDSKPDTTAPPSSPKVTYKAPVPTGEVYFADSFDRGTLSGWILSKAKKDDTDDEIAKYDGKWEVEEMKESKLPGDKGLVLMSRAKHHAISAKLNKPFLFDTKPLIVQYEVNFQNGIECGGAYVKLLSKTPELNLDQFHDKTPYTIMFGPDKCGEDYKLHFIFRHKNPKTGIYEEKHAKRPDADLKTYFTDKKTHLYTLILNPDNSFEILVDQSVVNSGNLLNDMTPPVNPSREIEDPEDRKPEDWDERPKIPDPEAVKPDDWDEDAPAKIPDEEATKPEGWLDDEPEYVPDPDAEKPEDWDEDMDGEWEAPQIANPRCESAPGCGVWQRPVIDNPNYKGKWKPPMIDNPSYQGIWKPRKIPNPDFFEDLEPFRMTPFSAIGLELWSMTSDIFFDNFIICADRRIVDDWANDGWGLKKAADGAAEPGVVGQMIEAAEERPWLWVVYILTVALPVFLVILFCCSGKKQTSGMEYKKTDAPQPDVKEEEEEKEEEKDKGDEEEEGEEKLEEKQKSDAEEDGGTVSQEEEDRKPKAEEDEILNRSPRNRKPRRE
With B1, the binding result in assay [7] and in assay [8] was “binds” throughout.

These data come from article PMC6368539.
